Results as given in the supplement of paper PMC12889115.
This is one part of the list. These are raw signals, not scaled to a control.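 Primary screen: polymyxin B was added at a level permeabilizing Salmonella outer membranes while sparing inner membranes. DMSO wells, both with and without polymyxin B, established maximum growth. Plate-to-plate variation meant each plate was ranked on its own, and the lowest-OD600 compounds were selected as hits.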

Tested on: Salmonella enterica serovar Typhimurium SL1344
Experiment: bacterial growth OD600 after 18 h with compound and polymyxin B; higher = more bacterial growth (less inhibition)
Conditions: 50 µM, Mueller-Hinton broth

| Structure (SMILES) | bacterial growth OD600 (polymyxin B 0.75 µg/mL) | bacterial growth OD600 (polymyxin B 1 µg/mL) |
| --- | --- | --- |
| CN(CC1CCOCC1)C(=O)c1csc2nc(-c3ccc(F)cc3)cn12 | 0.767 |  |
| COc1ccccc1C1CN(C)Cc2ccccc2O1 (configuration not stated) | 0.873 |  |
| O=C(NCCC1COc2ccccc2O1)c1ccc(NCC2CCOCC2)nc1 (configuration not stated) |  | 0.94 |
| CN(Cc1ccsc1)C(=O)c1cc(COc2ccc3c(c2)OCO3)[nH]n1 |  | 0.794 |
| CSCCCNC(=O)c1cn(CCCc2ccccc2)nn1 |  | 0.788 |
| COCCn1cnc2cc(NC(=O)C3CCCCC3)cc(C(=O)NCC3CCCN(C(C)C)C3)c21 (configuration not stated) | 0.852 |  |
| O=C(COc1ccccc1Cl)NC1CC(=O)N(Cc2ccc(F)cc2)C1 (configuration not stated) |  | 0.881 |
| COC(=O)[C@@H]1CCCN1C(=O)Cc1ccc(N2CCC(NCc3ccc4c(c3)OCO4)CC2)cc1 | 0.804 |  |
| COc1cccc(N2C[C@@H]3C[C@@H](c4cc5c(cc4Cl)OCO5)N4CCC[C@@]34C2=O)c1 | 0.141 |  |
| CCSc1ncc(CN2CCC3(CCCN(Cc4ccc(F)c(F)c4)C3)C2)cn1 (configuration not stated) |  | 0.765 |
| CN(C(=O)CC1(c2ccccc2)CC(=O)N(CCCOc2cccnc2)C1=O)C1CCOC1 (configuration not stated) | 0.95 |  |
| O=C1CCC(C(=O)N2CCC(C3CCN(Cc4cccnc4)CC3)C2)=NN1 (configuration not stated) | 0.816 |  |
| O=C(c1cc(COc2cccc(F)c2)[nH]n1)N1CCCN(c2ncccn2)CC1 |  | 0.95 |
| c1cncc(OCCNc2nc3nonc3nc2N2CCCCC2)c1 |  | 0.823 |
| CCOC(=O)C1(Cc2ccc(Cl)cc2)CCN(Cc2nccn2CC)CC1 |  | 0.943 |
| Cc1c(-c2ccccc2F)[nH]c2ccc(CNC(=O)CCN3CCCC3=O)cc12 |  | 0.7 |

| Structure (SMILES) | bacterial growth OD600 (polymyxin B 0.75 µg/mL) | bacterial growth OD600 (polymyxin B 1 µg/mL) |
| --- | --- | --- |
| CSc1ccc(CN2CC[C@@H](N3CCN(c4ccccc4F)CC3)[C@H](O)C2)cc1 |  | 0.846 |
| COc1cc(C(=O)NCc2ccncc2C)ccc1OC1CCN(C(C)=O)CC1 |  | 0.847 |
| Cc1cccc(NC(=O)CCC2CCN(C(=O)C3CCCC3)CC2)c1 |  | 0.814 |
| CCCc1cc(C(=O)N2CCC3(CC2)c2ccccc2[C@@H](NC(=O)CC)[C@@H]3OC)n(C)n1 | 0.906 |  |
| COc1ccccc1C1c2[nH]c3ccccc3c2CCN1Cc1nc(C)c[nH]1 (configuration not stated) |  | 1.27 |
| Cc1nonc1CC(=O)N1CCc2[nH]nc(-c3ccc(C(F)(F)F)cc3)c2C1 | 0.8 |  |
| Cc1ccccc1Cc1nc2cccnc2n1C1CCN(C(=O)c2ccc3c(c2)OCO3)CC1 | 0.848 |  |
| C=C(C)CNC(=O)c1coc(COc2ccc3c(c2)OCO3)n1 |  | 0.81 |
| COc1ccccc1C(C)N(C)C(=O)c1cn(Cc2cccc(C(F)(F)F)c2)nn1 (configuration not stated) |  | 0.846 |
| O=C(c1nc[nH]n1)N1CCN(Cc2c[nH]nc2-c2ccc(-c3ccccc3)cc2)CC1 |  | 0.91 |
| O=C1CCC(CCNCCOc2ccc(F)cc2)N1CCCc1ccccc1 (configuration not stated) | 0.986 |  |
| COCCn1cnc2cc(NC(=O)C3CCCCC3)cc(C(=O)N3CCCCC3c3cccnc3)c21 (configuration not stated) | 0.821 |  |
| COc1ccc(CNC(=O)CCC2CCCN(Cc3ccco3)C2)c(OC)c1 (configuration not stated) | 0.783 |  |
| O=C(c1cccc(OC2CCN(C/C=C/c3ccccc3)CC2)c1)N1CCCC1 | 0.716 |  |
| COC(=O)C1CCCCN1C(=O)c1c(OC)cc(=O)n2c1CCN(Cc1ccc(C)cc1)CC2 (configuration not stated) | 0.882 |  |
| COc1ccc(OC)c(CC(=O)N2CCc3c(cnc(C)c3CNC(=O)c3ccsc3)C2)c1 | 0.913 |  |

Looked up one by one from the entries so far, 2 records:

| Structure (SMILES) | bacterial growth OD600 (polymyxin B 0.75 µg/mL) | bacterial growth OD600 (polymyxin B 1 µg/mL) |
| --- | --- | --- |
| Cc1cccc(NC(=O)CCC2CCN(C(=O)C3CCCC3)CC2)c1 |  | 0.814 |
| O=C(c1nc[nH]n1)N1CCN(Cc2c[nH]nc2-c2ccc(-c3ccccc3)cc2)CC1 |  | 0.91 |
